Measurements from patent publication US20240043531A1, “ANTI-CD47 MONOCLONAL ANTIBODY AND USE THEREOF” (Akeso Biopharma, Inc., priority 2021, published 2024).
These are yes or no findings as the source states them, for the method shown. Some entries that bind do so weakly or less than the wild type.

Sequences of proteins named here, by UniProt entry; tags and fusion partners are left off. Residues count along the entry.
UniProt Q08722, residues 19-323: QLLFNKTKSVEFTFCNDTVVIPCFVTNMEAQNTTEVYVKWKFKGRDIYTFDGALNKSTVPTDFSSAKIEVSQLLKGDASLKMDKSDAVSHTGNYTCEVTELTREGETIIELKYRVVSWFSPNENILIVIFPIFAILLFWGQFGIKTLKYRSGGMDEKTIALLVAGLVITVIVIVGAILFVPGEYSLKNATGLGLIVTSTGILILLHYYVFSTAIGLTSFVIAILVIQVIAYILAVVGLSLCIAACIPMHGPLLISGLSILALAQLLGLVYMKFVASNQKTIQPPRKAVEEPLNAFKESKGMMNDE

Molecular target: human CD47 on 3T3-CD47 cells (NIH/3T3 cells stably expressing the human CD47 mature peptide) (human) (UniProt Q08722)
Assay: indirect ELISA screening with 3T3-CD47 cells as antigen

binding: binds
B1: anti-CD47 monoclonal antibody 6F7 (secreted by hybridoma cell line LT012) (antibody, V domains shown)
VH: QVQLQQPGAELVRPGASVKLSCKASGYTFTSYWMNWVKQRPGQGLEWIGMIDPSDSETHNNQMFKDKATLTVDKSSNTAYMHLSSLTSEDSAVYHCARLYRWYFDVWGAGTTVTVSS
VL: NIVMTQSPKSMSMSLGERVTLSCKASEIVGTYVSWFQQKPHQSPKLLIYGASNRYTGVPDRFTGSGSATDFTLTISNVQAEDLADYHCGQSYNFPYTFGGGTKLEIK
notes: Murine hybridoma antibody; also called CD47-6F7; LT012 antibody
